Test results: article PMC5346550
No constants are given. Whether binding was seen depends on the method and setting. For some of these results: In cells and extracts the contact can be indirect. Some binding calls cover weakened binding; strength is not graded here. Where a sequence is shown, tags or fusion partners need not be part of it. Blank lines part the entries; values can stand above or below the binder they belong to.

Assays:
[1] = target: T1, Arabidopsis Ying Yang 1 (AtYY1) fused to the GAL4 DNA binding domain (AtYY1-BD) (Arabidopsis thaliana) (UniProt Q2V3L3); assay: two-hybrid; yeast AH109 co-transformed with AtYY1-BD (pGBKT7) and AD fusions (pGADT7); growth on SD/-Trp/-Leu/-His and liquid beta-galactosidase assay with ONPG
T1 sequence: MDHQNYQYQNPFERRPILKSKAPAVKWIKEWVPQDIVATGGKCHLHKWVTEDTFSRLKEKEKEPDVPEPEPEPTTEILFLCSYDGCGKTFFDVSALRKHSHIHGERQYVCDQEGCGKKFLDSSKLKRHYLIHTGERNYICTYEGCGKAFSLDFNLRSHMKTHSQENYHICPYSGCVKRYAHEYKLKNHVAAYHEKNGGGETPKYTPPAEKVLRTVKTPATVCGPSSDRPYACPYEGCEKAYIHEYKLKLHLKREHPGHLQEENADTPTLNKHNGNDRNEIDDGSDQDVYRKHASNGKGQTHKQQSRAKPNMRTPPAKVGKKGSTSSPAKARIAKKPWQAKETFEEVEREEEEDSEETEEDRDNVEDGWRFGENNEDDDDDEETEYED

[2] = target: T2, AtYY1 fused to the N-terminal portion of yellow fluorescent protein (AtYY1-YFP^N) (Arabidopsis thaliana) (UniProt Q2V3L3); assay: split reporter; BiFC with YFP^N and YFP^C fusions in onion epidermal cells, particle bombardment, darkness at 22°C overnight, confocal microscopy
T2 sequence: T1 sequence

B2: CKB4 fused to the C-terminal portion of yellow fluorescent protein (CKB4-YFP^C) (protein, UniProt O80507 1-283)
chain: MYKDRSGGGIMGGGGSSRSEILGGAIDRKRINDALDKHLKKSSPSTSRVFTSKDKDSVPSTSTAKSQLHSRSPDVESDTDSEGSDVSGSEGDDTSWISWFCNLRGNEFFCEVDEDYIQDDFNLCGLSGQVPYYDYALDLILDVESSNGDMFTEEQHEMVESAAEMLYGLIHVRYILTTKGMAAMMEKYKNYDFGRCPRVFCCGQSCLPVGQSDIPRSSTVKIYCPKCEDIYYPRSKYQGNIDGAYFGTTFPHLFLMAYGNMKPQKPAQNYVPKIFGFKVHNKQ
binding [2]: binds

B4: CKB3 fused to the C-terminal portion of yellow fluorescent protein (CKB3-YFP^C) (protein, UniProt O81275 1-276)
chain: MYKERSGGGGGGSSRSEILGGAIDRKRINDALNKKLEKSSTSTTTSRVFSSKDKDPFSFTSTKTQLPDVESETDSEGSDVSGSEGDDTSWISWFCNLRGNDFFCEVDEDYIQDDFNLCGLSGQVPYYDYALDLILDVDASNSEMFTDEQHEMVESAAEMLYGLIHVRYILTTKGMAAMTEKYKNCDFGRCPRVFCCGQSCLPVGQSDIPRSSTVKIYCPKCEDISYPRSKFQGNIDGAYFGTTFPHLFLMTYGNLKPQKPTQSYVPKIFGFKVHKP
binding [2]: binds

More lines, now with the values ahead:

binding [1]: binds weakly
B1: CKII regulatory subunit CKB4 fused to the GAL4 activation domain (CKB4-AD) (protein, UniProt O80507 1-283)
chain: B2 chain

binding [1]: binds
B3: CKII regulatory subunit CKB3 fused to the GAL4 activation domain (CKB3-AD) (protein, UniProt O81275 1-276)
chain: B4 chain
